Laboratory results as given in PubChem BioAssay AID1347423 (Functional Genomics Laboratory (NCATS/FGL), 2020).
Out of some 52,000 sequences screened, about 210 (0.4%) were called active.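 The calls were made as follows: active = gene whose silencing raises cell survival under the drug, median off-target-corrected z-score across its silencing RNAs 2 or more; inactive = the rest.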 This is one part of the list.

Test: Resistance to Poly (ADP-Ribose) Polymerase inhibitor: Gene Identification via Genome-wide siRNA Screen
Conditions: mouse BRCA2 R2336H ES cells, olaparib, CellTiter-Glo viability; stronger effect = higher value
Excerpt: The role of Poly (ADP-Ribose) Polymerase (PARP) proteins in DNA repair has been elegantly utilized for the synthetic lethality-based treatment of BRCA-deficient tumors by PARP inhibitors. PARP inhibitors are now being used for treatment of BRCA-deficient breast and ovarian cancers. […] While several mechanisms of drug resistance have been identified, majority of these tumors develop drug resistance due to unknown causes. To identified novel regulators of chemo-resistance in BRCA2-mutated cells, we performed a genome wide siRNA library screen. We have found ES cells expressing a hypomorphic allele of BRCA2 to be hypersensitive to PAPP inhibitors (such as olaparib). We used ES cells expressing a mutant allele of BRCA2 that has a single amino acid substitution at position 2336 (arginine to histidine, R2336H). The screen was conducted using an Ambion (Thermo) Silencer Mouse Genome siRNA collection. The library targets 17,575 mouse genes with 3 siRNAs per gene. TET2 (E130014J05Rik) was identified as a top candidate.
Transfections were performed in 384 well plates (Corning 3707). Plates were coated with 0.1% gelatin in H2O overnight at ambient temperature. Gelatin solution was aspirated (BioTek EL406) and siRNAs were printed using a Bravo VPrep liquid handler integrated within a BioCel automation platform (Agilent). Cell viability was measured using CellTiter Glo (Promega). For transfections, […] of serum free media containing Lipofectamine RNAiMax […] was added to wells containing siRNA (0.8pmol). Lipid and siRNA were allowed to complex for 45 min at ambient temperature before addition of 1000 cells in DMEM, 30% FBS to yield final transfection mixtures containing 20 nM siRNA in DMEM, 15% FBS. PARPi (olaparib, AZD2281) was added 48 h post-transfection (500 nM) and viability (CellTiter Glo, Promega) was assayed 72 h later on a PerkinElmer Envision 2104 Multilabel plate reader. Ambion Silencer Select Negative Control #2 was incorporated on all screening plates (16 wells) and the median negative control value on each plate was used for normalization. An siRNA targeting Trp53 was used as a positive control. This control yielded a median protective effect of ~1.9 fold versus negative control throughout the screen. The median absolute deviation (MAD) based z-score was calculated for each siRNA. Genes were then ranked by taking the median value for all siRNAs tested against a given gene. Scores were also adjusted for seed-based off-target effects to help deprioritize likely false positives.

Sequence | z-score
GCCGUCAUGUCUACAAUAATT against 9030425E11Rik | inactive: -0.22
GGUUGUAUAACUCAGAUCUTT against Olfr1311 | inactive: 0.265
GGCGAAGAAAAUUGAAAGATT against 2700082D03Rik | inactive: 0.489
CCUGUUUCUAACAACCACUTT against Isg20 | inactive: -1.08
GGCAAAAAGCUCAAAAACATT against Fbxo32 | inactive: 0.769
CCAUGACCUAGGCAGAUAGTT against Tsga8 | inactive: -1.82
GCUUUCAUUAAGUCAGAUCTT against BC011209 | inactive: 1.06
GCUAACUUACCCAAAGAAATT against Tnfaip3 | inactive: -0.183
UCGGAAAGGGCCAUGAUAATT against Bola1 | inactive: 0.22
CGAGUUUGUAAUGAUGCUATT against Cabp4 | inactive: 0.614
GAAAAGAGUUUCCACGAGATT against Il19 | inactive: 0.268
GGGCUGCUCACAAUUUAUATT against 2810439K08Rik | inactive: 0.974
GCAGCUUGCUAAAAAUACATT against Lrrc20 | inactive: -1
GCCCGACAGGAGAUAUUUATT against B230340J04Rik | inactive: -1.19
GCACAAUAAACUUGAUAACTT against D5Wsu46e | inactive: -1.43
GGAUUAUGGAGUCUUAAAGTT against Prdx1 | inactive: 0.391
GGCAUCAGCCUUCUCAAAGTT against Mmp21 | inactive: -1.14
GCAAAAUAGCCCAGUAUAATT against Pax6 | inactive: -1.14
GCUGCAUUACACGUUCUAUTT against 4930590J08Rik | inactive: -0.582
GGUAGUUGUUCUAUGUUUUTT against Olfr967 | inactive: 0.173
GCAGAGUCGAAGUGAGAAGTT against Naca | inactive: -1.68
GGAAGCUUCGAGGAUGAUGTT against E130307J07Rik | inactive: -2.6
GGUAGCUCUGAAAAAUGACTT against Sfmbt1 | inactive: 1.03
CCACCAUCUGCUCUAAUCATT against Got2 | inactive: 0.262
GCCACGAAACAUAGUCACUTT against 1810055G02Rik | inactive: 0.559
GCACAACCAUAAUUCCAAATT against Olfr828 | inactive: -0.701

Sequence | z-score
GGCUAACUUCCCAUUUAGCTT against Hmga1 | inactive: 0.0621
GGUUGCUCAUUACAGUUAATT against Samd10 | inactive: 0.596
CGGAUAUCCACAAAUAUCGTT against Atp1b3 | inactive: 0.241
GCACUUCUACCGGAAAGUUTT against Mad2l1bp | inactive: -1.91
GCACAUGCAUAUCUGGAUCTT against Olfr577 | inactive: -0.823
GGCAGAACCCUUUGAUGACTT against Fos | inactive: 0.413
GGUGAUUCGAAAGAACCUGTT against Sh3md1 | inactive: -0.372
CGAAGGCUUCCCUUUUAUCTT against BC022651 | inactive: 0.248
GACUCUGUGGGUUCAAAAATT against BC008155 | inactive: 2.49
GGACGCGGAGAAGAAAGUUTT against Csda | inactive: 0.133
GCUACAGAAACCCGGGUAGTT against 2300003C06Rik | inactive: -3.07
GGAAAUGUUGCCGUUGUCCTT against 2810423E13Rik | inactive: -1.68
GGUGGAUAUUGAUAUCAAGTT against Fga | inactive: 0.753
GGACUUGAGUCUUUGUGGATT against 0610006O14Rik | inactive: 1.6
CCAGAUGUGUCGUAACAUATT against Clecsf9 | inactive: -1.13
CCAUACAUCAGUACUUACCTT against Olfr553 | inactive: 0.795
GCAUAACUUAAACUGCUCATT against C530015C18 | inactive: 0.616
GCCCACAUUUGUGUAAUUCTT against Olfr653 | inactive: 0.749
GGUGAUCAGAAAGUACACCTT against Dtx2 | inactive: 0.0913
CCCUGACAGAAGUGGUGAATT against F730038I15Rik | inactive: -1.65
GCGGAGUCUUUGGCUUAGATT against D330050I23Rik | inactive: -1.52
GCUACAAAUGUGUACCCUUTT against 2010004A03Rik | inactive: -0.864
CGAAUAUUGUGUCAGGUAUTT against Ppp4r1 | inactive: 0.246
GGCAGGACUCUGGAACAAGTT against Slc2a8 | inactive: -0.761
GGUCAGACAACUCAGGAAGTT against Tnfrsf13b | inactive: -0.927
GGCCUGUUUUUAAAAAGUCTT against Ddx51 | inactive: -0.169

Reprinted at random: six entries already listed, in no set order.
Sequence | z-score
GCUGCAUUACACGUUCUAUTT against 4930590J08Rik | inactive: -0.582
GCCCACAUUUGUGUAAUUCTT against Olfr653 | inactive: 0.749
GCACUUCUACCGGAAAGUUTT against Mad2l1bp | inactive: -1.91
GGAAAUGUUGCCGUUGUCCTT against 2810423E13Rik | inactive: -1.68
GAAAAGAGUUUCCACGAGATT against Il19 | inactive: 0.268
GGUGAUUCGAAAGAACCUGTT against Sh3md1 | inactive: -0.372

The list continues:

Sequence | z-score
GGGCCAGAAGAAGAGUCGATT against Mllt6 | inactive: -0.504
GGAUUAGGUCAUUAUUAGGTT against Kcne3 | inactive: 1.45
GGAGAUCUUCAGUCUCCUUTT against Homer1 | inactive: 1.5
GGACAUCCAUCAGUACAGGTT against Hras1 | inactive: 0.731
GGUCACAGCAAGUUAAUAATT against Ranbp9 | inactive: -1.82
CCAAUGUUUUAGGCUUCCGTT against Tulp1 | inactive: -0.852
GCUCGAUAUAAUUUCACACTT against Neto1 | inactive: 0.241
CCUUGUGCCAAAUACUUCATT against 5730559C18Rik | inactive: -1.48
GCAAAAACAGGAUCACCCATT against Lrig1 | inactive: 1.98
CCCUGGACAUUCUAAUUACTT against Lrfn2 | inactive: -0.259
GGAUUCAUAAAAGAAGCAATT against Zfp90 | inactive: 0.776
CCCAGUUUCUCUAGGAAUATT against H2afx | inactive: -0.0973
GGUCCGAUACAUCUAAACUTT against Cxcl11 | inactive: -0.359
GCUUUCUUUUAUGGCACGGTT against C330014O21Rik | inactive: 1.79
GGCAUCCAUGUGCUCUUUCTT against 1700025D03Rik | inactive: 0.321
GGAUUUCUUUGUCAGUACUTT against Il22ra2 | inactive: -0.901
GGCUAGAAAACCUCUAUCUTT against 4930442L21Rik | inactive: -1.17
CCUCAACAGUUCCUAAGUUTT against Olfr1275 | inactive: -3.16
GGAAAGGUGUGAACAAUUGTT against Myh8 | inactive: -0.122
GCAGUUUUGGGCAAUACCUTT against Olfr358 | inactive: 0.295
GGCUUACGAUGAAAAUAAATT against 4930431B11Rik | inactive: -0.359
GCCAGGUCAAGGCAUACUUTT against Apoa2 | inactive: 0.889
GGUACAGGUUCCUGUGAAUTT against 1700054O13Rik | inactive: 0.622
CCCGUAACAAGAAUUAGCGTT against Mccc2 | inactive: -0.0187
CCAGACGAGGAGAACAUCATT against BC042901 | inactive: -0.0813
GGCAACUCUUGAAGACUUGTT against Gdf15 | inactive: -0.418

Sequence | z-score
GGAUCGAUCUGUUGAACAGTT against Dag1 | inactive: -0.693
GGGAAUAUUUGAAAUUCCATT against Usp54 | inactive: 0.95
GCCGUAUCACCCUAAACUATT against C130099A20Rik | inactive: 0.667
GGGAGAUCAAUCAUUACUUTT against Olfr332 | inactive: -0.388
GGUCACAAGAAGAGCUUUUTT against Eppk1 | inactive: -0.954
GGGAAGAGAGACGAAAAAATT against Nufip1 | inactive: -0.539
UCAGCUGGUUUUAAUCUCUTT against Olfr1029 | inactive: -0.485
GUCCCAGUACCUCAUUUUUTT against V1rc26 | inactive: 0.689
GGAGACAGAGCAUGUGGUATT against 1200015N20Rik | inactive: -0.63
GGAGAACCAUGAGAGGGACTT against 1700037C18Rik | inactive: -0.111
GGAGACAAAGACUUGUAAGTT against BC050188 | inactive: 1.29
GGACAUUAGGAAAUUAGAUTT against Ppp3cc | inactive: 0.289
GGGAAAACUACGCAAGAGCTT against 1500010G04Rik | inactive: 0.545
CGAUUGACUUAAGAUUCAGTT against Hlf | inactive: 0.303
GCGACUUGCUGAAUGAUUUTT against Pfkm | inactive: -0.213
CCCUCAGCAGUUUAUGGAUTT against Kin | inactive: 0.168
CCGUCCAAAUCCUUAUUGATT against Pcdhb2 | inactive: -0.068
GCUUUAGAAUUCCAUACGATT against Zfp114 | inactive: 0.903
GAAUGAAGUGUUAUCCUGUTT against 1110017O22Rik | inactive: -0.885
CCCUCGAGUGACCAUAGUGTT against MGC79224 | inactive: 0.723
GGGUUUACAAAAGAAUAUGTT against Nck2 | inactive: 1.24
CCAGCAACCUUAAGAAAUUTT against Ppp2r1a | inactive: -1.55
GGGACAGCAAAGAAGAUAATT against Rrad | inactive: -1.21
GGUGAUGAAGAUUUCAAAGTT against Tcf7 | inactive: 1.36
GGAUGUGCUCUGUGAAUGCTT against Pgf | inactive: -1

Given field by field: entries from further up.
GCACAAUAAACUUGAUAACTT against D5Wsu46e
  z-score: inactive: -1.43
GGAGACAAAGACUUGUAAGTT against BC050188
  z-score: inactive: 1.29
